ChEMBL document CHEMBL5465560, “Selectivity Literature for EUbOPEN Chemogenomic Library” (2024)

Chains of the proteins cited; added tags and fusions are not shown. Lines headed by an entry give the natural chain unless they say otherwise; changes in a name come on top.
UniProt Q12852: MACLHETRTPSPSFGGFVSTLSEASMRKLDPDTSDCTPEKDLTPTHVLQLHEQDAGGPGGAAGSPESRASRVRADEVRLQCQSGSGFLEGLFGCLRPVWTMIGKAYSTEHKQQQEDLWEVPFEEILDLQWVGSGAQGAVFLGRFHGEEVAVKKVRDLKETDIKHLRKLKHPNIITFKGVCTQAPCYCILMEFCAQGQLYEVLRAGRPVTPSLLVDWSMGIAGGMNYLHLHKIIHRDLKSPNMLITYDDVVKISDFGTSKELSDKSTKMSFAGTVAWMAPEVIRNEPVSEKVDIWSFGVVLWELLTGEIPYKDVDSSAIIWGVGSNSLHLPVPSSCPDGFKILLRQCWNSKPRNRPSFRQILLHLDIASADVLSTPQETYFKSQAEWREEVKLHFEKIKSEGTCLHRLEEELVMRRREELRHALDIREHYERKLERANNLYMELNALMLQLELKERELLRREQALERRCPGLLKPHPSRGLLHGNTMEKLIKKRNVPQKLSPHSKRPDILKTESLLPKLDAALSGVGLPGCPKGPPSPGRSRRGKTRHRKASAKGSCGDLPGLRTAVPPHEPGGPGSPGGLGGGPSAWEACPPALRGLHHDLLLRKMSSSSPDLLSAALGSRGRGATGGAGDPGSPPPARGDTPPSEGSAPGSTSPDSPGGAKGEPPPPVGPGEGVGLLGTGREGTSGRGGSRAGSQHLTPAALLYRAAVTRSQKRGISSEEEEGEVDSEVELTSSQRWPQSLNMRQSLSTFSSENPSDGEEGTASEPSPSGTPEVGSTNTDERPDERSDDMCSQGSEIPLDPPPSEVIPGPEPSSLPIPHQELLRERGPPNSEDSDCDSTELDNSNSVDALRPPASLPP
UniProt O75582, whole entry, looked up: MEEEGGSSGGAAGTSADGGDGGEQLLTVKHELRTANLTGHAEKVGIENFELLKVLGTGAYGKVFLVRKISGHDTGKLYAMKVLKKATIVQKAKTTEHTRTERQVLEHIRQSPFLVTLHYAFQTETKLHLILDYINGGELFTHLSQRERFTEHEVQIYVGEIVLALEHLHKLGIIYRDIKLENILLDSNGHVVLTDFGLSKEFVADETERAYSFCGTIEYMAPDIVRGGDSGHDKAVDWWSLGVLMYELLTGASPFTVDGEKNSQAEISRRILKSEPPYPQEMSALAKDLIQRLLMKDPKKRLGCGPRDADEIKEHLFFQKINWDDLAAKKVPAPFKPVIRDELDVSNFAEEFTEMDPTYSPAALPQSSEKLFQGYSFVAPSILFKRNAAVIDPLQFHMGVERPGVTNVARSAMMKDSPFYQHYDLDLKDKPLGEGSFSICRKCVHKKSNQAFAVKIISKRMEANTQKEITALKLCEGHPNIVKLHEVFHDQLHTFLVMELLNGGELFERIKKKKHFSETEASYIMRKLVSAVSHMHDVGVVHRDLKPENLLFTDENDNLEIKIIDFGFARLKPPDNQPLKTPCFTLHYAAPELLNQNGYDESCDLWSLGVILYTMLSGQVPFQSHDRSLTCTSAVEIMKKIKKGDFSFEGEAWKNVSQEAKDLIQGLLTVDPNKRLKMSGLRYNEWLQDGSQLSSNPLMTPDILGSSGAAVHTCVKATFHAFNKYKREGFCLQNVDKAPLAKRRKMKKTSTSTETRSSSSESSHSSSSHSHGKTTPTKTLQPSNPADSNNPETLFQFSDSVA
UniProt O75116: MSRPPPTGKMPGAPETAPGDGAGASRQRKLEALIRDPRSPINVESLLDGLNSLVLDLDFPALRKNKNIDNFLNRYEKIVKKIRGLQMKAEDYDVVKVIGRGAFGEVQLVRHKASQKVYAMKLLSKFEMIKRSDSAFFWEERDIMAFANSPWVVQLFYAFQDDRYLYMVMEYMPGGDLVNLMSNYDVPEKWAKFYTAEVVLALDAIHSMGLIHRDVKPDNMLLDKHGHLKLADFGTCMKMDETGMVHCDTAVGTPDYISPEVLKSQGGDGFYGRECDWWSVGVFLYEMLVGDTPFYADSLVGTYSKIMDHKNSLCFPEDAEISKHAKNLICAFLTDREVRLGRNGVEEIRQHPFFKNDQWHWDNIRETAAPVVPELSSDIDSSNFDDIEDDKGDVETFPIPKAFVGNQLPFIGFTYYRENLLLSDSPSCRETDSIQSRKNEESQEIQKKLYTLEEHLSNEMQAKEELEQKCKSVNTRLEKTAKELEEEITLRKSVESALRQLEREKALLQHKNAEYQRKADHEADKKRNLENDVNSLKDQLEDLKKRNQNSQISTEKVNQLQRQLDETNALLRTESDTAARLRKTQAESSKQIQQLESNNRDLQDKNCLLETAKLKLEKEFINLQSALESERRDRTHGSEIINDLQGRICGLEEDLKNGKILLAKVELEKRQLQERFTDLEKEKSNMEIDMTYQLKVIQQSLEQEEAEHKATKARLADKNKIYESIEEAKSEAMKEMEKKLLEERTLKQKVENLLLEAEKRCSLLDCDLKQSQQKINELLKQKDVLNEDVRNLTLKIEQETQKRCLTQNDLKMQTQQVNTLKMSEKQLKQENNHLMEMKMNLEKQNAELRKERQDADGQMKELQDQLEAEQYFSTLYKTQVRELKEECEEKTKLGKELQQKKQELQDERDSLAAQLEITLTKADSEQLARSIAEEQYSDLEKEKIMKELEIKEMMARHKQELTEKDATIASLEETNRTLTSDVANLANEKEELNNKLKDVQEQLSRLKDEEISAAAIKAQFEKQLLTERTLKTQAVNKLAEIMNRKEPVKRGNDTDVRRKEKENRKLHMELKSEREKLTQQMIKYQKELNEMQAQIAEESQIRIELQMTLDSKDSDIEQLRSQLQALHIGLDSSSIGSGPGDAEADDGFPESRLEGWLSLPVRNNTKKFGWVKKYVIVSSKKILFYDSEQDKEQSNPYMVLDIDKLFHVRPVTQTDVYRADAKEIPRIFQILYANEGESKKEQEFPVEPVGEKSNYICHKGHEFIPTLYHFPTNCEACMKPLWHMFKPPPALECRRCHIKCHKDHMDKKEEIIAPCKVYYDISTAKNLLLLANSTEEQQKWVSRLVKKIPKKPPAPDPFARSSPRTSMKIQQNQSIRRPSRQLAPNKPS
UniProt Q00536: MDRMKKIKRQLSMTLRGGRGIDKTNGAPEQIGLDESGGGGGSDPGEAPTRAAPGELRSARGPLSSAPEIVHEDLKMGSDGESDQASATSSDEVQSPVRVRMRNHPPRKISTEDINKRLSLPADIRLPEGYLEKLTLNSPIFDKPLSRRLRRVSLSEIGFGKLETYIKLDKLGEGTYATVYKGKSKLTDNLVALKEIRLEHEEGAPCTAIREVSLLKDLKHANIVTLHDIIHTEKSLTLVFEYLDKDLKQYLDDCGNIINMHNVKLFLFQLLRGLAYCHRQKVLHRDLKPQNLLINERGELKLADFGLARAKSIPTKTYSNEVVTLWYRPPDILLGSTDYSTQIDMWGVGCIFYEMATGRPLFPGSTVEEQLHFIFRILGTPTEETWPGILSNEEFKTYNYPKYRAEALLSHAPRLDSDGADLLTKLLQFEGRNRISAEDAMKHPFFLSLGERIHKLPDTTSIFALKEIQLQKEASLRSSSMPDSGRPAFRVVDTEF
UniProt P57078: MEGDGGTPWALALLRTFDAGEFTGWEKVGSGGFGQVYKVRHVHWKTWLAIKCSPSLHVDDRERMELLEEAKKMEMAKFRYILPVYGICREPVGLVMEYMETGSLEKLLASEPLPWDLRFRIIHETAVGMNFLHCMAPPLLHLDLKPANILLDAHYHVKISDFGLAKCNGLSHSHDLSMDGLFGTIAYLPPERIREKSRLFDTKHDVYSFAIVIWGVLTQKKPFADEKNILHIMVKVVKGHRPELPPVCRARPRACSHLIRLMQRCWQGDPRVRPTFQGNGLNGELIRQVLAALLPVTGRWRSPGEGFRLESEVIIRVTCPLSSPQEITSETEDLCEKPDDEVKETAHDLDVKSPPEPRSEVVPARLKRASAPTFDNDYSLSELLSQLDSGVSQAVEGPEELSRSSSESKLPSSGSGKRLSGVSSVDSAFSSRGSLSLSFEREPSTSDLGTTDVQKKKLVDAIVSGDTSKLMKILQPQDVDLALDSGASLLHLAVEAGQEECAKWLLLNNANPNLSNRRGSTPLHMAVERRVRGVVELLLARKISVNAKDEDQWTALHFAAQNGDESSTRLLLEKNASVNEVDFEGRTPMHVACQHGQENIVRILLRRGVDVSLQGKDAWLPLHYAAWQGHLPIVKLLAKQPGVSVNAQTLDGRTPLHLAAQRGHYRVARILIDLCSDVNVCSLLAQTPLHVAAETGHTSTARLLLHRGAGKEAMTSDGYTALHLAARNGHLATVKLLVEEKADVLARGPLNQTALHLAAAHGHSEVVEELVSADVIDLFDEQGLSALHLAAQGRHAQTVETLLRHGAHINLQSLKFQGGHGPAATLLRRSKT
UniProt Q9BYT3: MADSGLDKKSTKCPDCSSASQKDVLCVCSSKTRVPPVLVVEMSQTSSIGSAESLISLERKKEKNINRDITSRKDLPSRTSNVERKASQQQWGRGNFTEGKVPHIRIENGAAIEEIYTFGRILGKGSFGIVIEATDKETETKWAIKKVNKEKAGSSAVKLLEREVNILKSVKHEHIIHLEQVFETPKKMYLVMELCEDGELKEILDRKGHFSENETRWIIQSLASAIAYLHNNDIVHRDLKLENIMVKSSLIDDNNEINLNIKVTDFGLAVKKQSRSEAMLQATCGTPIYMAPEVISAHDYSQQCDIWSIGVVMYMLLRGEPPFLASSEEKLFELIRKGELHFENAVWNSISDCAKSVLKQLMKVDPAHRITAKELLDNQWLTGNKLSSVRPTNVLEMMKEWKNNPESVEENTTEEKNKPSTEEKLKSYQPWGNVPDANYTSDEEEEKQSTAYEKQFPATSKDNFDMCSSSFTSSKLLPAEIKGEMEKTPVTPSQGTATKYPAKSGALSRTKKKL
UniProt P22455, whole entry, looked up: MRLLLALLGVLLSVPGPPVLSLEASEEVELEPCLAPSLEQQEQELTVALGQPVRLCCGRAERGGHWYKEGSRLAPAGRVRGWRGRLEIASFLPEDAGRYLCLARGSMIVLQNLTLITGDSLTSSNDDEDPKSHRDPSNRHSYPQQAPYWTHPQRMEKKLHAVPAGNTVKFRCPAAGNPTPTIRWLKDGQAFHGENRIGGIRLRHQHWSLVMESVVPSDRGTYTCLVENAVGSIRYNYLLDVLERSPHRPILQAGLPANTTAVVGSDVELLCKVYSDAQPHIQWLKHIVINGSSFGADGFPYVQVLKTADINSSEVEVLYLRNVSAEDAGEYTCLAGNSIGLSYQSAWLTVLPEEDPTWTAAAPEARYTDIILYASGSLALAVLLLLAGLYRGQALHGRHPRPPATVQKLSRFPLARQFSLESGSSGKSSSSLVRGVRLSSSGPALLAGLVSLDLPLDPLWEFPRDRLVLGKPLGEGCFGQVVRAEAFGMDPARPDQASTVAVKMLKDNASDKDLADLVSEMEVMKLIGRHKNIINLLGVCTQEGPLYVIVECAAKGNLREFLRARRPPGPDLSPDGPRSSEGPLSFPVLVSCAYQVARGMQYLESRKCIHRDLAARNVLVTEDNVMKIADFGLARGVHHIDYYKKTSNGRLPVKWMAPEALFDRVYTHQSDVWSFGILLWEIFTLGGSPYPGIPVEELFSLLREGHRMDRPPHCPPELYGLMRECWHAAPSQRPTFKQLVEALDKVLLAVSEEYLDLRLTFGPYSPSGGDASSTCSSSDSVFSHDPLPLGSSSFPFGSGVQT
UniProt Q9UHD2: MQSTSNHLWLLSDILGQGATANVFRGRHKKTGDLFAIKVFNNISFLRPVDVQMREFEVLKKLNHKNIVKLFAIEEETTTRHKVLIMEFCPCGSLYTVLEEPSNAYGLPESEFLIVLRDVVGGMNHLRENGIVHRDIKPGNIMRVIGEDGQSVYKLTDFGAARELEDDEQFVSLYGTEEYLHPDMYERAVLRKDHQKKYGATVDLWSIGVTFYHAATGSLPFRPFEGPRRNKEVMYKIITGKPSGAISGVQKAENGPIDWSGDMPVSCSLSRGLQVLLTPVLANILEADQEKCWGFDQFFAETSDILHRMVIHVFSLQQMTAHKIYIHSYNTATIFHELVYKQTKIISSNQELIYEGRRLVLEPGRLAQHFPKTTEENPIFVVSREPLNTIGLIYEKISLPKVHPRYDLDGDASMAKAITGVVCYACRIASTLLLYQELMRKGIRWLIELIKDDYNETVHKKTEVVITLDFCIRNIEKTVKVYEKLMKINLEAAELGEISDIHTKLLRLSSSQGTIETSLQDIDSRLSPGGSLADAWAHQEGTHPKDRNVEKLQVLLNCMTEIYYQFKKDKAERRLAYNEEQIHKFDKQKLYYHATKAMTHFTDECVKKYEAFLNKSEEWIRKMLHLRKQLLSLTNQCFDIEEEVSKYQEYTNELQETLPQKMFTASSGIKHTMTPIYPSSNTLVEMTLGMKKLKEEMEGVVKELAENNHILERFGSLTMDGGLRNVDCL

Experiments:
Conditions in all cases: at 1 µM
[1] = biological target: Mitogen-activated protein kinase kinase kinase 12 (Homo sapiens) (UniProt Q12852); assay: Selectivity interaction (KinomeScan (DiscoverX)) EUB0001581a MAP3K12
[2] = biological target: Serine/threonine-protein kinase MRCK gamma (Homo sapiens) (UniProt Q6DT37)
[3] = biological target: Mitogen-activated protein kinase kinase kinase kinase 5 (Homo sapiens) (UniProt Q9Y4K4); assay: Selectivity interaction (KinomeScan (DiscoverX)) EUB0001581a MAP4K5
[4] = biological target: Ribosomal protein S6 kinase alpha-5 (Homo sapiens) (UniProt O75582); assay: Selectivity interaction (KinomeScan (DiscoverX)) EUB0001581a RPS6KA5
[5] = biological target: Rho-associated protein kinase 2 (Homo sapiens, UniProt O75116); assay: Selectivity interaction (KinomeScan (DiscoverX)) EUB0001581a ROCK2
[6] = biological target: Serine/threonine-protein kinase Nek4 (Homo sapiens) (UniProt P51957); assay: Selectivity interaction (KinomeScan (DiscoverX)) EUB0001581a NEK4
[7] = biological target: Cyclin-dependent kinase 16 (Homo sapiens) (UniProt Q00536); assay: Selectivity interaction (KinomeScan (DiscoverX)) EUB0001581a CDK16
[8] = biological target: Citron Rho-interacting kinase (Homo sapiens) (UniProt O14578); assay: Selectivity interaction (KinomeScan (DiscoverX)) EUB0001581a CIT
[9] = biological target: Mitogen-activated protein kinase kinase kinase 7 (Homo sapiens) (UniProt O43318); assay: Selectivity interaction (KinomeScan (DiscoverX)) EUB0001581a MAP3K7
[10] = biological target: Dual specificity mitogen-activated protein kinase kinase 1 (Homo sapiens, UniProt Q02750); assay: Selectivity interaction (KinomeScan (DiscoverX)) EUB0001581a MAP2K1
[11] = biological target: Platelet-derived growth factor receptor alpha (Homo sapiens, UniProt P16234); assay: Selectivity interaction (KinomeScan (DiscoverX)) EUB0001581a PDGFRA
Aurora kinase B = Aurora kinase B (Homo sapiens, UniProt Q96GD4); assay: Selectivity interaction (KinomeScan (DiscoverX)) EUB0001581a AURKB
[12] = biological target: Myotonin-protein kinase (Homo sapiens) (UniProt Q09013)
[13] = biological target: Ephrin type-A receptor 6 (Homo sapiens) (UniProt Q9UF33)
[14] = biological target: Receptor-interacting serine/threonine-protein kinase 4 (Homo sapiens) (UniProt P57078); assay: Selectivity interaction (KinomeScan (DiscoverX)) EUB0001581a RIPK4
[15] = biological target: Serine/threonine-protein kinase 33 (Homo sapiens) (UniProt Q9BYT3); assay: Selectivity interaction (KinomeScan (DiscoverX)) EUB0001581a STK33
[16] = biological target: Ribosomal protein S6 kinase alpha-6 (Homo sapiens, UniProt Q9UK32); assay: Selectivity interaction (KinomeScan (DiscoverX)) EUB0001581a RPS6KA6
[17] = biological target: Mitogen-activated protein kinase kinase kinase 1 (Homo sapiens, UniProt Q13233); assay: Selectivity interaction (KinomeScan (DiscoverX)) EUB0001581a MAP3K1
[18] = biological target: cAMP-dependent protein kinase catalytic subunit beta (Homo sapiens) (UniProt P22694); assay: Selectivity interaction (KinomeScan (DiscoverX)) EUB0001581a PRKACB
[19] = biological target: MAP kinase-interacting serine/threonine-protein kinase 2 (Homo sapiens, UniProt Q9HBH9); assay: Selectivity interaction (KinomeScan (DiscoverX)) EUB0001581a MKNK2
[20] = biological target: Fibroblast growth factor receptor 4 (Homo sapiens, UniProt P22455); assay: Selectivity interaction (KinomeScan (DiscoverX)) EUB0001581a FGFR4
[21] = biological target: Ephrin type-B receptor 2 (Homo sapiens) (UniProt P29323); assay: Selectivity interaction (KinomeScan (DiscoverX)) EUB0001581a EPHB2
[22] = biological target: Tyrosine-protein kinase Fyn (Homo sapiens) (UniProt P06241); assay: Selectivity interaction (KinomeScan (DiscoverX)) EUB0001581a FYN
SRSF protein kinase 1 = SRSF protein kinase 1 (Homo sapiens, UniProt Q96SB4); assay: Selectivity interaction (KinomeScan (DiscoverX)) EUB0001581a SRPK1
[23] = biological target: Serine/threonine-protein kinase LATS2 (Homo sapiens) (UniProt Q9NRM7); assay: Selectivity interaction (KinomeScan (DiscoverX)) EUB0001581a LATS2
[24] = biological target: Inhibitor of nuclear factor kappa-B kinase subunit epsilon (Homo sapiens) (UniProt Q14164); assay: Selectivity interaction (KinomeScan (DiscoverX)) EUB0001581a IKBKE
[25] = biological target: Dual specificity tyrosine-phosphorylation-regulated kinase 2 (Homo sapiens) (UniProt Q92630); assay: Selectivity interaction (KinomeScan (DiscoverX)) EUB0001581a DYRK2
[26] = biological target: Tyrosine-protein kinase ABL1 (Homo sapiens, UniProt P00519); assay: Selectivity interaction (KinomeScan (DiscoverX)) EUB0001581a ABL1
[27] = biological target: Casein kinase I isoform epsilon (Homo sapiens, UniProt P49674); assay: Selectivity interaction (KinomeScan (DiscoverX)) EUB0001581a CSNK1E
[28] = biological target: Serine/threonine-protein kinase TBK1 (Homo sapiens) (UniProt Q9UHD2); assay: Selectivity interaction (KinomeScan (DiscoverX)) EUB0001581a TBK1
[29] = biological target: Macrophage-stimulating protein receptor (Homo sapiens) (UniProt Q04912); assay: Selectivity interaction (KinomeScan (DiscoverX)) EUB0001581a MST1R
[30] = biological target: Activin receptor type-1B (Homo sapiens) (UniProt P36896); assay: Selectivity interaction (KinomeScan (DiscoverX)) EUB0001581a ACVR1B
[31] = biological target: Mitogen-activated protein kinase 13 (Homo sapiens) (UniProt O15264); assay: Selectivity interaction (KinomeScan (DiscoverX)) EUB0001581a MAPK13
[32] = biological target: Serine/threonine-protein kinase PAK 1 (Homo sapiens) (UniProt Q13153); assay: Selectivity interaction (KinomeScan (DiscoverX)) EUB0001581a PAK1
[33] = biological target: Tyrosine-protein kinase JAK1 (Homo sapiens, UniProt P23458); assay: Selectivity interaction (KinomeScan (DiscoverX)) EUB0001581a JAK1

`C[C@@H]1C[C@H](N)C[C@H](c2ccncc2NC(=O)c2ccc(F)c(-c3c(F)cccc3F)n2)C1` was tested, and the % of control [1] was 100%, the % of control [2] was 95% and the % of control [3] was 100%. For the same compound, the % of control [4] was 100%, the % of control [5] was 77% and the % of control [6] was 100%. The % of control [7] was 100%, the % of control [8] was 38% and the % of control [9] was 82%. It also gave a % of control [10] of 100%, a % of control [11] of 100% and a % of control (Aurora kinase B) of 98%. The % of control [12] was 95%, the % of control [13] was 95% and the % of control [14] was 100%. It also gave a % of control [15] of 99%, a % of control [16] of 100% and a % of control [17] of 91%. For the same compound, the % of control [18] was 97%, the % of control [19] was 100% and the % of control [20] was 91%. The % of control [21] was 100%, the % of control [22] was 100% and the % of control (SRSF protein kinase 1) was 100%. It also gave a % of control [23] of 100%, a % of control [24] of 93% and a % of control [25] of 100%. For the same compound, the % of control [26] was 100%, the % of control [27] was 87% and the % of control [28] was 100%. It also gave a % of control [29] of 92%, a % of control [30] of 88% and a % of control [31] of 76%. It also gave a % of control [32] of 100% and a % of control [33] of 99%.
